# Source: paper PMC3088709, “Phosphorylation of the Yeast γ-Tubulin Tub4 Regulates Microtubule Function” (PLoS ONE, 2011)
# Residue numbers refer to the chain shown, from its start. Names may count otherwise. Results are given in words; binding and its absence hold for the method and conditions named. Binding seen in cells or lysates may run through a third protein. Some entries that bind do so weakly or less than the wild type. Tags and fused reporters may be left off the sequences shown.
# T1: Tub4 with six copies of the hemagglutinin epitope HA (S. cerevisiae) (UniProt P53378)
# T1 sequence: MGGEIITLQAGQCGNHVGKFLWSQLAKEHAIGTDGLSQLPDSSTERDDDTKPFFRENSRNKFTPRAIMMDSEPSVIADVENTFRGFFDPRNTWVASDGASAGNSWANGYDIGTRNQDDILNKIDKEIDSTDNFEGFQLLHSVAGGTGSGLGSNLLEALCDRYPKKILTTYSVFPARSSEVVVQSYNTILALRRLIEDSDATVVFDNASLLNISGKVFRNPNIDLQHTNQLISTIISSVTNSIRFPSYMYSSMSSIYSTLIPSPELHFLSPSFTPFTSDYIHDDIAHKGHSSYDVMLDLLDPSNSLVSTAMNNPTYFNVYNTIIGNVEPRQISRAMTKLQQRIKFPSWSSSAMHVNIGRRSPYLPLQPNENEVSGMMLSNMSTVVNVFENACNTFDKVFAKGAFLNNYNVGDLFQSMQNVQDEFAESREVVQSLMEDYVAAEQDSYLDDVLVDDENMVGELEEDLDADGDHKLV
# B1: Tub4 (yeast gamma-tubulin), wild type, untagged (protein, UniProt P53378 1-473)
# chain: T1 sequence
# B2: Tub4-S74E (natural protein, S. cerevisiae, UniProt P53378 1-473, looked up)
# chain: T1 sequence with S74E
# notes: Tub4, gamma-tubulin of budding yeast, phospho-mimicking mutant; source: S. cerevisiae, from integrated pRS305-tub4-S74E, in lysate
# B3: Tub4-S100E (protein, UniProt P53378 1-473)
# chain: T1 sequence with S100E
# B4: Tub4-S360A (protein, UniProt P53378 1-473)
# chain: T1 sequence with S360A
# B5: Tub4-S360D (protein, UniProt P53378 1-473)
# chain: T1 sequence with S360D
# Biological target: T1, Tub4 with six copies of the hemagglutinin epitope HA (S. cerevisiae)
# Test: co-IP; anti-HA immunoprecipitation of Tub4-6HA from lysates of SPC97-5FLAG TUB4-6HA cells carrying pRS305 with TUB4 alleles; Protein G Dynabeads, 4°C, 50 mM Tris-HCl pH 7.5, 150 mM NaCl, 0.1% Triton X-100; blots with anti-Tub4 and anti-FLAG
row,Binder,binding
1,B1,binds
2,B2,binds
3,B3,binds
4,B4,binds
5,B5,binds
